# Results reported in the supplement of paper PMC11150407.
# Screen size: about 3,000 compounds; about 45 (2%) showed an effect of 50% or more. The list shows a part of the results.
# System: MOLM1 and UCSD/AML1 (averaged)
# Test: cell viability relative to DMSO control (POC); higher = less growth inhibition
# Conditions: 1 µM; 72 h
# Method: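 Primary viability screen in the 3q26 EVI1-high AML cell lines MOLM1 and UCSD/AML1, compounds at 1 uM for 72 h. ATP CellTiter-Glo read-out given as percent viable over DMSO control (POC), averaged over duplicates. This mapping covers the TimTec NDL-3000 natural derivative library, whose compounds are identified by TimTec catalogue codes (ST...).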
row,Structure (SMILES),cell viability [%]
1,COC(=O)c1ccc(NC(=O)c2cc(OC)c(OC)c(OC)c2)cc1,23.1
2,O=C(/C=C/c1ccc2c(c1)OCO2)NCCSCc1cccc(Cl)c1,114
3,COc1ccc(-c2cc(-c3ccc(C)cc3)c(C#N)c(=O)[nH]2)cc1,101
4,C=CCN(C(=O)CSc1nc2ccccc2c(=O)[nH]1)c1ccccc1,88.4
5,O=c1ccc2ccccc2[nH]1,95.3
6,CCc1ccc2oc(=O)cc(CN3CCN(c4cc(C)ccc4C)CC3)c2c1,124
7,CCCCc1ccc(NC(=O)c2cc(OC)c(OC)c(OC)c2)cc1,49.6
8,CCc1ccc2oc(=O)cc(CN3CCN(CC(=O)Nc4cccc(SC)c4)CC3)c2c1,97.6
9,COc1cc(OC)c(C2NC(C(=O)O)Cc3c2[nH]c2ccccc32)cc1OC (stereo not drawn),107
10,O=c1cc(C(Cl)(Cl)Cl)oc2ccccc12,4.98
11,O=C(Nc1ccc(Cl)cc1Cl)c1c(O)c2ccccc2[nH]c1=O,101
12,COc1cc(C2C(C(=O)OC3CCCC3)=C(C)NC3=C2C(=O)CC(C)(C)C3)cc(Br)c1O (stereo not drawn),106
13,CCCCCOC(=O)C1=C(C)NC2=C(C(=O)CCC2)C1c1cc(Cl)c(O)c(OC)c1 (stereo not drawn),100
14,CCN(CC)C(=O)c1ccc(OCc2csc(C)n2)c(OC)c1,91.6
15,CC(=O)Nc1ccc(NC(C)=O)c(NC2OC(CO)C(OC3OC(CO)C(O)C(O)C3O)C(O)C2O)c1 (stereo not drawn),103
16,CCn1c(SCc2nc(-c3ccccc3)oc2C)nc2c(=O)[nH]cnc21,96.8
17,COc1ccc(-c2c(C)c3cc(Cl)c(O)cc3oc2=O)cc1OC,85.4
18,CC(=O)NCCc1c[nH]c2ccc(O)cc12,103
19,C=C1C(NC(=O)c2cc(OCC)c(OCC)c(OCC)c2)=C(C)N(C)N1c1ccccc1,99.9
20,O=C(Cn1c(=O)cc(C(=O)N2CCCC2)c2ccccc21)Nc1ccc(Br)cc1,96.6
21,COC(=O)c1ccc2c(c1)C(=O)/C(=C/c1ccc(O)c(OC)c1)O2,84.6
22,COc1cc(-c2nnc(NC(=O)c3ccc(C)cc3)o2)cc(OC)c1OC,101
23,COc1cc(OC)cc(C(=O)Nc2ccc(NC(C)=O)cc2)c1,106
24,Cn1c2ccccc2c2cc(/C=C/C(=O)c3ccc4ccccc4c3O)ccc21,106
25,Cc1ccc(COc2ccc(C3Nc4ccccc4NC4=C3C(=O)CC(C)(C)C4)cc2Cl)cc1 (stereo not drawn),105
26,O=C(CCNc1ccc(Oc2ccc(Cl)cc2)cc1)c1cc2ccccc2oc1=O,92.7

row,Structure (SMILES),cell viability [%]
1,CCCOc1ccc(-c2cc(CSc3nc4c(=O)[nH]cnc4n3C)c(C)o2)cc1,97.4
2,C=CCOC(=O)C1=C(C)NC(S)=C(C#N)C1c1ccc(OC)cc1 (stereo not drawn),112
3,COc1ccc(CSc2nc3c(=O)[nH]cnc3n2-c2ccc(C)cc2)cc1,99.3
4,CC(C)(C)c1ccc(-c2oc3ccccc3c(=O)c2OCC#N)cc1,88.8
5,O=C(Cn1c(=O)cc(C(=O)N2CCOCC2)c2ccccc21)Nc1ccccc1,97.6
6,O=C(CCl)NC(Cc1c[nH]c2cc(OCc3ccccc3)ccc12)C(=O)O (stereo not drawn),101
7,Cn1c(=O)c(C(=O)Nc2cccc(Cl)c2Cl)c(O)c2ccccc21,110
8,N#CC1=C(N)Oc2cc(O)ccc2C1c1cccc([N+](=O)[O-])c1 (stereo not drawn),101
9,COc1ccc(/C=C2/N=C(c3ccccc3)N(Nc3nc(Nc4ccc([N+](=O)[O-])cc4O)nc(Nc4ccc([N+](=O)[O-])cc4O)n3)C2=O)cc1,87.3
10,CCCC(NC(=O)C(C)N)C(=O)O (stereo not drawn),116
11,Cc1ccc2c(CN3CCN(Cc4ccc(F)cc4Cl)CC3)cc(=O)oc2c1,122
12,O=C(CSc1nc2c(=O)[nH]cnc2n1-c1ccccc1)Nc1ccc(F)cc1,96.9
13,COc1ccc(-c2cn3c4c(=O)n(C)c(=O)n(C)c4nc3n2Cc2ccccn2)cc1,99.1
14,O=C(O)c1ccc2cccc(O)c2n1,92.5
15,COC(=O)c1ccc(C(=O)NCCc2c(C)[nH]c3ccc(OCc4ccccc4)cc23)cc1,105
16,CCOc1cc(C(=O)Nc2cccnc2)cc(OCC)c1OCC,103
17,Cc1[nH]c2c(Cl)cccc2c1CCNC(=O)c1cc([N+](=O)[O-])cc([N+](=O)[O-])c1,92.7
18,CCOC(=O)c1c(CSc2ccc(C)cc2)n(C)c2cc(Br)c(OC(C)=O)cc12,77.6
19,O=C1C2OCC(O2)C2C1[C@H]2C(=O)C12CC3CC(CC(C3)C1)C2 (stereo partly drawn),88.9
20,COc1ccc(C(=O)Nc2ccc3ncn(C)c3c2)cc1OC,101
21,COC(=O)C1=C(C)NC(SCC(=O)c2ccc3c(c2)OCO3)=C(C#N)C1c1cccs1 (stereo not drawn),95.7
22,Cc1cc(C)c2c(CN3CCC4(CC3)OCCO4)cc(=O)oc2c1,95.6
23,COc1ccccc1-c1nc(CSc2nc3c(=O)[nH]cnc3n2-c2ccc(C)cc2)c(C)o1,103
24,COc1ccccc1-c1oc2ccccc2c(=O)c1OC(=O)c1cccs1,90.1
25,CCOC(=O)c1c(C)n(CCOc2ccccc2Cl)c2ccc(O)cc12,94.8
26,CCN(CC)c1ccc2cc(-c3ccc(OC)cc3)c(=O)oc2c1,88.7

row,Structure (SMILES),cell viability [%]
1,CCN(CC)C(=O)c1cc(=O)n(CC(=O)Nc2ccc(Br)cc2F)c2ccccc12,98.8
2,O=C(OCc1ccccc1)C1CCCN1c1nc(-c2ccc(F)cc2)cs1 (stereo not drawn),101
3,COc1ccc(/C=C2\CCc3ccccc3C2=O)cc1COc1ccc([N+](=O)[O-])c(C)c1,106
4,O=c1[nH]cc(I)c(=O)[nH]1,98.6
5,Cn1c(COc2ccccc2)nnc1SCc1cc(=O)[nH]c2ccccc12,110
6,COc1ccc2c(C)c(CCC(=O)NCc3ccc4c(c3)OCO4)c(=O)oc2c1,101
7,CCC(CC)NCc1cc(OC)c(O)c(OC)c1,101
8,COc1cc(OC)cc(C(=O)N2CCN(Cc3ccccc3F)CC2)c1,102
9,COCCC(=O)[C@@]12O[C@@H]1CC1C3CC=C4CC(O)CCC4(C)C3CCC12C (stereo partly drawn),99.1
10,Cn1c(SCC(=O)Nc2ccccc2C(F)(F)F)nc2c(=O)[nH]cnc21,97.5
11,COc1ccc(S(=O)(=O)NCC2(C)CCCC3(C)c4ccc(C(C)C)cc4CCC23)cc1C (stereo not drawn),91.9
12,O=C(CSc1nc2ccccc2c(=O)[nH]1)NCc1ccc2c(c1)OCO2,103
13,COc1cc(C(=O)Nc2cc(C(F)(F)F)ccc2N2CCCCC2)ccc1Oc1cc([N+](=O)[O-])cc(C(F)(F)F)c1,103
14,COc1cc(C2NC(=O)CCC2[N+](=O)[O-])c(Br)c(OC)c1OC (stereo not drawn),123
15,O=C(/C=C/c1ccc(NC(=O)c2cc(N3C(=O)c4ccccc4C3=O)cc(N3C(=O)c4ccccc4C3=O)c2)cc1)c1ccccc1,102
16,O=C(O)C(Cc1ccccc1)N1C(=O)c2ccccc2C1=O (stereo not drawn),108
17,Cn1c2c(c(=O)n(C)c1=O)C(c1ccc(Cl)cc1)C(C#N)=C(N)O2 (stereo not drawn),93.6
18,COC(=O)Nc1c(C(=O)OC)cc(OC)c(OC)c1OC,89.1
19,O=C(O)c1cc(-c2ccc(Cl)cc2)nc2ccccc12,90.6
20,O=C(Nc1ccnc(=O)[nH]1)c1ccccc1,100
21,O=C(CCNc1ccc(C(=O)N2CCCCC2)cc1)c1cc2ccccc2oc1=O,91.7
22,O=c1oc2ccccc2cc1-c1ccc(Cl)cc1,87.8
23,N#CCOc1ccc2c(=O)c(Oc3ccccc3Cl)coc2c1,104
24,COc1cc(CCC(=O)N2CCCc3cc(Br)ccc32)cc(OC)c1OC,87.4
25,CCOc1ccc2oc(=O)cc(CN3CCNCC3)c2c1,90.2
26,CC1(C)Cn2c(nc(=O)c(Br)c2N)S1,98.6

# Some of the entries so far, tab-delimited:
row	Structure (SMILES)	cell viability [%]
18	COC(=O)Nc1c(C(=O)OC)cc(OC)c(OC)c1OC	89.1
19	O=C(O)c1cc(-c2ccc(Cl)cc2)nc2ccccc12	90.6
20	O=C(Nc1ccnc(=O)[nH]1)c1ccccc1	100
21	O=C(CCNc1ccc(C(=O)N2CCCCC2)cc1)c1cc2ccccc2oc1=O	91.7

# Some of the entries so far, with tabs.
row	Structure (SMILES)	cell viability [%]
11	Cc1ccc2c(CN3CCN(Cc4ccc(F)cc4Cl)CC3)cc(=O)oc2c1	122
12	O=C(CSc1nc2c(=O)[nH]cnc2n1-c1ccccc1)Nc1ccc(F)cc1	96.9
13	COc1ccc(-c2cn3c4c(=O)n(C)c(=O)n(C)c4nc3n2Cc2ccccn2)cc1	99.1
14	O=C(O)c1ccc2cccc(O)c2n1	92.5

# The list continues.

row,Structure (SMILES),cell viability [%]
1,COc1cc(C2CC(=O)Nc3nc(N)sc32)cc(OC)c1O (stereo not drawn),112
2,CCOc1ccc(-c2oc3ccccc3c(=O)c2O)cc1OCC,94
3,COc1ccc2c(CN3CCc4ccccc4C3)cc(=O)oc2c1,97.1
4,O=C(O)CC(NCc1ccccc1)C(=O)O (stereo not drawn),103
5,COc1cc(OC)cc(C(=O)Nc2sc(Nc3ccc(C)cc3)nc2C(N)=O)c1,95.8
6,COc1cc(OC)cc(C(=O)Nc2ccc3c(c2)NC(=O)C(C)O3)c1 (stereo not drawn),97.5
7,CCCNC(=O)c1cc(=O)n(CC(=O)Nc2ccc(F)cc2)c2ccccc12,106
8,COc1ccc2[nH]c(C)c(CCNC(=O)C(F)(F)F)c2c1,102
9,CCCNC(=O)c1cc(=O)n(CC(=O)Nc2ccc(Br)cc2F)c2ccccc12,87.6
10,CCc1ccc2oc(-c3ccccc3)cc(=NCCO)c2c1,96.3
11,COCCOC(=O)c1c(C)n(CCOCc2ccc(Cl)cc2)c2ccc(O)cc12,90.9
12,Cc1oc(-c2ccc(Cl)cc2)nc1CSc1nc2c(=O)[nH]cnc2n1-c1ccccc1,104
13,O=C1CC(n2nnnc2-c2ccccc2Cl)C2COC1O2 (stereo not drawn),64.4
14,Cc1ccccc1C(=O)NCCc1c(C)[nH]c2c(C)ccc(F)c12,84.5
15,CCn1c(SCC(=O)Nc2ccccc2C(F)(F)F)nc2c(=O)[nH]cnc21,93.4
16,COc1ccc(CCNC(=O)COc2ccc(C)cc2)cc1OC,101
17,C=C(C)C1CCC2(C(=O)OC)CCC3(C)C(CCC4C5(C)CCC(=O)C(C)(C)C5CCC43C)C12 (stereo not drawn),99
18,CNC(=O)c1cc(=O)n(CC(=O)Nc2cccc(C(F)(F)F)c2)c2ccccc12,116
19,CCOC(=O)C(CC)Oc1ccc2c(=O)c(Oc3ccccc3Cl)coc2c1 (stereo not drawn),94.4
20,COC(=O)C(Cc1ccccc1)NC(=O)C(N)CC(=O)O (stereo not drawn),106
21,COc1cc2c(cc1OC)C(Cc1ccccc1)NCC2 (stereo not drawn),94.6
22,CCc1[nH]nc2c1C(c1ccc(O)c(OC)c1)C(C#N)=C(N)O2 (stereo not drawn),107
23,Cc1cc2c(C(C)C)c(O)c(O)c(/C=N/Nc3nnnn3-c3ccccc3)c2c(O)c1-c1c(C)cc2c(C(C)C)c(O)c(O)c(/C=N/Nc3nnnn3-c3ccccc3)c2c1O,86.1
24,CCc1c(O)c2c(C)cc(C)cc2[nH]c1=O,94.9
25,CC(=O)OC1CCC2(C)C(CCC3(C)C2C(=O)C=C2C4CC(C)(C(=O)Nc5ccc(C)cc5)CCC4(C)CCC23C)C1(C)C (stereo not drawn),96.2
